± gives the standard deviation of the averaged measurements. The list shows a part of the results.
Compound: Nc1nc2c(ncn2[C@@H]2O[C@H](COP(=O)(O)OP(=O)(O)OP(=O)(O)O)[C@@H](O)[C@H]2O)c(=O)[nH]1 [guanosine triphosphate]
Assay: NP40-soluble protein abundance relative to vehicle (solubility fold change) (ratio); higher = more soluble protein in presence of GTP
Outline: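 Eight concentrations, 0.1 to 10 mM, were tested on Jurkat crude lysate for 10 min at room temperature and then 3 min at 37 °C, in three independent experiments. The lysate was solubilised with 0.8% NP40 and benzonase, ultracentrifuged, and the supernatant TMT-labelled for LC-MS/MS. Each value is the fold change against the detergent-processed vehicle in its own replicate, from vsn-normalised intensities.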

By UniProt entry, the sequences of proteins in these tests, tags left out. Where a name states a change or a piece, a line headed by the entry shows the natural chain unless it says otherwise.
UniProt Q92947: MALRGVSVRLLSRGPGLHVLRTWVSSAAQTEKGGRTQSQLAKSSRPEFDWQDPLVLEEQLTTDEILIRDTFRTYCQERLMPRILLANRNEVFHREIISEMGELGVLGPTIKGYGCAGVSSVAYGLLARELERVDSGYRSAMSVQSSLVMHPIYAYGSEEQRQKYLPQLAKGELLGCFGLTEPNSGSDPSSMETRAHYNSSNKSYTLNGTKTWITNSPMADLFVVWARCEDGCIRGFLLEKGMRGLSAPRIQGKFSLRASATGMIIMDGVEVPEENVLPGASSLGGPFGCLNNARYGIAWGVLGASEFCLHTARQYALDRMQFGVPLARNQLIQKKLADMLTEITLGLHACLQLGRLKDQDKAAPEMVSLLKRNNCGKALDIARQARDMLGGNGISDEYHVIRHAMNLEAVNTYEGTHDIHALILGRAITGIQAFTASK
UniProt Q8WVM0: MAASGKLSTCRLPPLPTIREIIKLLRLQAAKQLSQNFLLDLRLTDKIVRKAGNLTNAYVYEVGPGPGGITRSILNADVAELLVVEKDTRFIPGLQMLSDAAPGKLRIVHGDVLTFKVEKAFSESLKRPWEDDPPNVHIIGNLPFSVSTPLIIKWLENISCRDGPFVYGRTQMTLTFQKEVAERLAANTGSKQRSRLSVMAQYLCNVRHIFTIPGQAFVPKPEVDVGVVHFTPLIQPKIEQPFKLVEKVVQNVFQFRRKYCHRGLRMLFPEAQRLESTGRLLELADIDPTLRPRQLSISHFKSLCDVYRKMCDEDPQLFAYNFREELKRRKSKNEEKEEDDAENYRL
UniProt Q96BN8, whole entry: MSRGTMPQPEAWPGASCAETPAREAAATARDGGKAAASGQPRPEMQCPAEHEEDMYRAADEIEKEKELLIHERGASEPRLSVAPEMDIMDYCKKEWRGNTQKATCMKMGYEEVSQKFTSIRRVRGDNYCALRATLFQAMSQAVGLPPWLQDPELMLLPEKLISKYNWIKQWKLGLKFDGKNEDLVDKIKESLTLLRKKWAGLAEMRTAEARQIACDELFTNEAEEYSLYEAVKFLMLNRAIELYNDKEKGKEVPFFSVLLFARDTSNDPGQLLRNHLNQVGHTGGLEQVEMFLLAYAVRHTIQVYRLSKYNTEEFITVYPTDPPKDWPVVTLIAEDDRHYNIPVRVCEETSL
UniProt Q92556, whole entry: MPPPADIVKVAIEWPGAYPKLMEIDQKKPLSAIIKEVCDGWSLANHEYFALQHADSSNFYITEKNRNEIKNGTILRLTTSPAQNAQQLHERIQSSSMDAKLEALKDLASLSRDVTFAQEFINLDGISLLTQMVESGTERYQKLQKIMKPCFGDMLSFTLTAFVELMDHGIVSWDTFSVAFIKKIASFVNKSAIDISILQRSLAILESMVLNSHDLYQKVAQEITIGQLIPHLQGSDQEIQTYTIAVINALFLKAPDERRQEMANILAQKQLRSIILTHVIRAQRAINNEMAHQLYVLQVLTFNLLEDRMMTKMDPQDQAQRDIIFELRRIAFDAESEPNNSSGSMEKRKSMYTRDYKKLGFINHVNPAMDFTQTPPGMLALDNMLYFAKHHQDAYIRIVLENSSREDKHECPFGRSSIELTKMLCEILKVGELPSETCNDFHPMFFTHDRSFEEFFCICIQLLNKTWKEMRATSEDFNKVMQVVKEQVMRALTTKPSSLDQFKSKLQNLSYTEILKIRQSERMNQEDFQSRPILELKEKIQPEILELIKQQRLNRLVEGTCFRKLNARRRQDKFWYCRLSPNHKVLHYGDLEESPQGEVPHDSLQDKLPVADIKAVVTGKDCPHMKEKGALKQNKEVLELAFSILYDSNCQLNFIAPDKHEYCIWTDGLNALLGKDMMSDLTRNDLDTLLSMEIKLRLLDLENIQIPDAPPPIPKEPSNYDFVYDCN
UniProt Q96GX9: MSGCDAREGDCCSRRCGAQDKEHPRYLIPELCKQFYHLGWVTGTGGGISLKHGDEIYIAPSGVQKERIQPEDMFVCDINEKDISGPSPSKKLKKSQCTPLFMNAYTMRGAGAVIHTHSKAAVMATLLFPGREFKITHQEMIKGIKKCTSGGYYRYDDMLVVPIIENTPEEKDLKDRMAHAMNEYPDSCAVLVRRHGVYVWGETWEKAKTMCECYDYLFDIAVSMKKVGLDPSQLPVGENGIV
UniProt Q8WZA0: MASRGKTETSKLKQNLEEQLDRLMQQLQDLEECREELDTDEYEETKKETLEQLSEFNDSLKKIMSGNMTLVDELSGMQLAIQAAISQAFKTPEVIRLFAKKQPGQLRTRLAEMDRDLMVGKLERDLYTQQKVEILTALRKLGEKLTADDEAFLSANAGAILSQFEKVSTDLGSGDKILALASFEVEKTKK
UniProt Q96CB9: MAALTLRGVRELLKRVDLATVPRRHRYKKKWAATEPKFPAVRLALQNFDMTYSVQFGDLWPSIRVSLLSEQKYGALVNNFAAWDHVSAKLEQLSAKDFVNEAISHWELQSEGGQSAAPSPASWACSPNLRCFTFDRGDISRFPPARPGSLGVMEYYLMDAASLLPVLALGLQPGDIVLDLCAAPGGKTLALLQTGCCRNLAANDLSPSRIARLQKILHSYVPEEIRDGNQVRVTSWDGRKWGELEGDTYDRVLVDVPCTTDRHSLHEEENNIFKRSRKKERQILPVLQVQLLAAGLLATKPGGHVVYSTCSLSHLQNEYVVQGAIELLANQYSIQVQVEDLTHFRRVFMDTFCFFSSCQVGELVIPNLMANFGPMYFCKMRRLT
UniProt Q96JB5: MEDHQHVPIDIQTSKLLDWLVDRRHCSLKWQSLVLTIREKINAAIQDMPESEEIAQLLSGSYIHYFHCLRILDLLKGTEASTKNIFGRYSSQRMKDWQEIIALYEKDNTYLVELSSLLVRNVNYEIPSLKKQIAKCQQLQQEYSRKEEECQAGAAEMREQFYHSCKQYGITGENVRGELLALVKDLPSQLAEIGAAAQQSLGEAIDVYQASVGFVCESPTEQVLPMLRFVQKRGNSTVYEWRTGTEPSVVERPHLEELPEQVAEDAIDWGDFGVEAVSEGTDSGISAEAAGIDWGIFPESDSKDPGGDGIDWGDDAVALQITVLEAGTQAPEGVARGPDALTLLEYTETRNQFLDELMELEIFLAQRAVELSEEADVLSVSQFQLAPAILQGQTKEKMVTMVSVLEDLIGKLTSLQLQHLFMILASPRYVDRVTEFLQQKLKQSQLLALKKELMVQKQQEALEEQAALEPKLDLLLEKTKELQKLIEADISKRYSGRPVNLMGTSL
UniProt Q92597: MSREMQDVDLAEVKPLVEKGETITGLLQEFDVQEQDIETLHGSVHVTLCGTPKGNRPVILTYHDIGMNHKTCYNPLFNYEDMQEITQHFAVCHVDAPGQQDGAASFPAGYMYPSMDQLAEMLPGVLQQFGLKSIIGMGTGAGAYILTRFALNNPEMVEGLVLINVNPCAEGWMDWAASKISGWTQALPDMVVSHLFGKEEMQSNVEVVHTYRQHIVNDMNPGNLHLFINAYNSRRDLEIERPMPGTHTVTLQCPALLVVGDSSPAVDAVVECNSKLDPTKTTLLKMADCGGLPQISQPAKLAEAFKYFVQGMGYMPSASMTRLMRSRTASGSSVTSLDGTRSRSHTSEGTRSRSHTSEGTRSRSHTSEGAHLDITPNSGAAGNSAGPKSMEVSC
UniProt Q8WUQ7: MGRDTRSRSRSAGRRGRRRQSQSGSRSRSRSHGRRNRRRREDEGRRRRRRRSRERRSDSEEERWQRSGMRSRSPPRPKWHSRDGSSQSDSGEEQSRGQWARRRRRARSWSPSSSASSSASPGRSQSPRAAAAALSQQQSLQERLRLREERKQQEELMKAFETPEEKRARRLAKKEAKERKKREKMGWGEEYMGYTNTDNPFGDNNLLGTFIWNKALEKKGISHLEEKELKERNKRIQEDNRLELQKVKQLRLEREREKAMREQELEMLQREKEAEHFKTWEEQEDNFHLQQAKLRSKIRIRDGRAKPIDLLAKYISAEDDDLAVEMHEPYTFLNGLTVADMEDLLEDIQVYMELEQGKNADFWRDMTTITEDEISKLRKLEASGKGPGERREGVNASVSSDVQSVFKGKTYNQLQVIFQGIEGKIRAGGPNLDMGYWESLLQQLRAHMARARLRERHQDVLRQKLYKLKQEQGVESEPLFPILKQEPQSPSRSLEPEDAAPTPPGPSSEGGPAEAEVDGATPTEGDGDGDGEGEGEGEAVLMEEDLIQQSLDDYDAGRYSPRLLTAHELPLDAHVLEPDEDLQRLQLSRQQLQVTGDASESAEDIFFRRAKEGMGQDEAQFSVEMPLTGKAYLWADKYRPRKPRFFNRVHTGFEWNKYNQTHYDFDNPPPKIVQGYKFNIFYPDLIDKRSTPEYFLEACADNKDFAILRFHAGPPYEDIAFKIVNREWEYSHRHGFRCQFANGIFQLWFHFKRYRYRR
UniProt Q96ES7: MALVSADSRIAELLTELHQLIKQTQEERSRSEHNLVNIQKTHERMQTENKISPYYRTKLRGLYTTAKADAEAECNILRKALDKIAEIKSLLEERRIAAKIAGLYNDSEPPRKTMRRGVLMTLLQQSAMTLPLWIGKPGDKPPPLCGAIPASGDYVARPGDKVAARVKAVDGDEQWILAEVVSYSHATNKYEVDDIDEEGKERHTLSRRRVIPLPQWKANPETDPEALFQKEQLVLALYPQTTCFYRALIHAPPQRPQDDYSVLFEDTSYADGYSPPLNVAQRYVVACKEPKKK
UniProt Q8WUB8: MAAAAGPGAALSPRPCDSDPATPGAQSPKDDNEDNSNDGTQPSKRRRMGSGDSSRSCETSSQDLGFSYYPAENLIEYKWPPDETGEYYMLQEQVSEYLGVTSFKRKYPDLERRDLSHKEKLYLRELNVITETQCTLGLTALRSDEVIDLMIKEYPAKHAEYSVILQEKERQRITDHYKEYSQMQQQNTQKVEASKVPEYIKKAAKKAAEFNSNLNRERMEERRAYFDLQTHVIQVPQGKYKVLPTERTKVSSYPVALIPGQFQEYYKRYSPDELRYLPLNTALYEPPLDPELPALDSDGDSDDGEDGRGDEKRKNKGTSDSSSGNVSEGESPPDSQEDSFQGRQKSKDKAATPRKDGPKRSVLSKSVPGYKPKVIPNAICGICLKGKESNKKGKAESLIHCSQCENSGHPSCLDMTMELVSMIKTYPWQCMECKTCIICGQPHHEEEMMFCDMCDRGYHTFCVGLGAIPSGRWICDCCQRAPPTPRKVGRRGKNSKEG
UniProt Q96C19: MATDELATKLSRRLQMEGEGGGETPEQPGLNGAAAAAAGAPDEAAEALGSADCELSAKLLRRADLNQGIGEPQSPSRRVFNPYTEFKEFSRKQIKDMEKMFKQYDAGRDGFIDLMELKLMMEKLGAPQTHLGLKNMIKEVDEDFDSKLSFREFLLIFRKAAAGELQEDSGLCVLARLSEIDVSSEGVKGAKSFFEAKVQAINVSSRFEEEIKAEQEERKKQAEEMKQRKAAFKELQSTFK
UniProt Q92882: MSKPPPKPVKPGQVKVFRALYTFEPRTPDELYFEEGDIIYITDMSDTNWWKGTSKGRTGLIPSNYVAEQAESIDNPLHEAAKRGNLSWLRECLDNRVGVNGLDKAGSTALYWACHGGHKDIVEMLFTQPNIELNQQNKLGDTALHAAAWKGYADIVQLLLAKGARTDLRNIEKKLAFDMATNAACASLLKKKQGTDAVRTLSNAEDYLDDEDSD

Target | NP40-soluble protein abundance (concentration: 0.1mM) | NP40-soluble protein abundance (concentration: 0.5mM) | NP40-soluble protein abundance (concentration: 1mM) | NP40-soluble protein abundance (concentration: 2mM) | NP40-soluble protein abundance (concentration: 4mM) | NP40-soluble protein abundance (concentration: 6mM) | NP40-soluble protein abundance (concentration: 8mM) | NP40-soluble protein abundance (concentration: 10mM)
UniProt Q92947 and related entries | 0.949 ± 0.016 | 0.974 ± 0.033 | 0.8627 ± 0.0084 | 0.902 ± 0.045 | 0.876 ± 0.053 | 0.862 ± 0.021 | 0.813 ± 0.029 | 0.856 ± 0.046
TFB1M (UniProt Q8WVM0) | 1.11 ± 0.096 | 1.12 ± 0.18 | 1.01 ± 0.03 | 1.17 ± 0.19 | 1.177 ± 0.0012 | 1.27 ± 0.17 | 1.32 ± 0.22 | 1.27 ± 0.17
UniProt Q96BN8 | 1.028 ± 0.0021 | 0.983 ± 0.054 | 0.914 ± 0.018 | 0.916 ± 0.073 | 0.892 ± 0.045 | 0.855 ± 0.051 | 0.846 ± 0.058 | 0.854 ± 0.057
ELMO1 (UniProt Q92556) | 1.03 ± 0.015 | 1.04 ± 0.031 | 0.981 ± 0.016 | 0.994 ± 0.023 | 0.981 ± 0.026 | 0.979 ± 0.021 | 0.971 ± 0.022 | 0.948 ± 0.025
UniProt Q96GX9 and related entries | 0.981 ± 0.029 | 0.991 ± 0.035 | 0.965 ± 0.021 | 0.957 ± 0.038 | 0.935 ± 0.033 | 0.928 ± 0.018 | 0.929 ± 0.011 | 0.911 ± 0.025
UniProt Q8WZA0 and related entries | 0.911 ± 0.076 | 0.832 ± 0.098 | 1.08 ± 0.092 | 1 ± 0.068 | 1.02 ± 0.039 | 0.971 ± 0.075 | 0.995 ± 0.14 | 1.05 ± 0.15
NSUN4 (UniProt Q96CB9) | 1.2 ± 0.032 | 1.2 ± 0.022 | 0.876 ± 0.031 | 1.07 ± 0.11 | 1.07 ± 0.075 | 0.988 ± 0.029 | 0.83642 ± 0.00078 | 0.825 ± 0.13
CDK5RAP3 (UniProt Q96JB5) | 0.955 ± 0.083 | 0.914 ± 0.044 | 0.905 ± 0.06 | 0.927 ± 0.034 | 0.968 ± 0.067 | 0.952 ± 0.031 | 0.946 ± 0.059 | 0.954 ± 0.029
PHIP (UniProt Q8WWQ0) | 1.02 ± 0.06 | 1.05 ± 0.037 | 1.11 ± 0.053 | 1.11 ± 0.014 | 1.15 ± 0.086 | 1.14 ± 0.035 | 1.19 ± 0.062 | 1.23 ± 0.15
UniProt Q92597 and related entries | 0.942 ± 0.083 | 0.906 ± 0.06 | 0.956 ± 0.071 | 0.967 ± 0.11 | 0.941 ± 0.1 | 0.92 ± 0.12 | 0.875 ± 0.032 | 0.932 ± 0.032
UniProt Q8WUQ7 and related entries | 0.975 ± 0.11 | 1.02 ± 0.12 | 0.967 ± 0.13 | 1.02 ± 0.14 | 1.09 ± 0.13 | 1.12 ± 0.095 | 1.12 ± 0.03 | 1.19 ± 0.11
UniProt Q96ES7 | 1.21 ± 0.22 | 1.12 ± 0.13 | 1.25 ± 0.19 | 1.14 ± 0.12 | 1.26 ± 0.11 | 1.17 ± 0.11 | 1.38 ± 0.32 | 1.12 ± 0.096
UniProt Q8WUB8 and related entries | 1 ± 0.013 | 1.06 ± 0.066 | 1.084 ± 0.0075 | 1.19 ± 0.059 | 1.27 ± 0.12 | 1.25 ± 0.13 | 1.27 ± 0.15 | 1.36 ± 0.19
EFHD2 (UniProt Q96C19) | 0.93 ± 0.062 | 0.874 ± 0.12 | 0.953 ± 0.088 | 0.9 ± 0.13 | 0.907 ± 0.12 | 0.904 ± 0.14 | 0.909 ± 0.14 | 0.897 ± 0.12
OSTF1 (UniProt Q92882) | 0.887 ± 0.047 | 0.879 ± 0.07 | 0.927 ± 0.12 | 0.869 ± 0.14 | 0.848 ± 0.13 | 0.845 ± 0.11 | 0.853 ± 0.11 | 0.854 ± 0.09

A run of entries of the results above:
Target | NP40-soluble protein abundance (concentration: 0.1mM) | NP40-soluble protein abundance (concentration: 0.5mM) | NP40-soluble protein abundance (concentration: 1mM) | NP40-soluble protein abundance (concentration: 2mM) | NP40-soluble protein abundance (concentration: 4mM) | NP40-soluble protein abundance (concentration: 6mM) | NP40-soluble protein abundance (concentration: 8mM) | NP40-soluble protein abundance (concentration: 10mM)
UniProt Q92597 and related entries | 0.942 ± 0.083 | 0.906 ± 0.06 | 0.956 ± 0.071 | 0.967 ± 0.11 | 0.941 ± 0.1 | 0.92 ± 0.12 | 0.875 ± 0.032 | 0.932 ± 0.032
UniProt Q8WUQ7 and related entries | 0.975 ± 0.11 | 1.02 ± 0.12 | 0.967 ± 0.13 | 1.02 ± 0.14 | 1.09 ± 0.13 | 1.12 ± 0.095 | 1.12 ± 0.03 | 1.19 ± 0.11
